Values from PubChem BioAssay AID652259 (Drosophila RNAi Screening Center, 2013).

Screen: 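Genome-wide hunt for genes that control Wingless pathway activity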 (primary screen)
Cells: Drosophila clone 8 imaginal disc epithelial cells
Knock-down reagent: long dsRNA against Drosophila genes
Challenge: pathway stimulated by co-transfected Wingless expression plasmid
Detection: 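Firefly luciferase from a tcf-site Wingless reporter, measured alongside co-transfected Renilla luciferase that tracks transfection; pathway stimulated by a Wingless plasmid; the firefly-to-Renilla ratio is not deposited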
Direction: firefly reporter light: higher = more Wg reporter light, before normalisation; Renilla control light: higher = more transfected or surviving cells
Call rule: 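Strong candidates differ from their plate mean by at least two out of four per-plate statistical tests; weak candidates meet just one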
Calls: active = candidate regulator (raises or lowers reporter); inactive = not a candidate
The screen tested about 22,000 reagents; this is a random part of those that have a named target and a result. Over the whole deposit, 233 (1.1%) were called active. 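Light values are raw, unnormalised plate reads; the ratio scores behind the reporter calls were not deposited.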 A number with no mark means an inactive call. Names joined by + are all predicted targets of the reagent. Not stated in the record: the amount of reagent, the time to read-out, the dose of the treatment.

target gene,dsRNA,"firefly reporter light, replicate 1","firefly reporter light, replicate 2","Renilla control light, replicate 1","Renilla control light, replicate 2"
nanos,DRSC17018,18588,,2650,
CG3652,DRSC00624,3484,8784,1140,3634
Polr2L,DRSC14630,20560,,10512,
His3.3A,DRSC03343,2341,5016,162,352
CG3448,DRSC10368,5831,,2309,
Tbca,DRSC15395,1612,3383,598,1027
ArfGAP1,DRSC11173,6705,,2473,
CG13829,DRSC14679,8756,,10290,
Mnn1,DRSC03368,3405,9057,968,3146
CG13014,DRSC19533,16695,,7993,
CG14036,DRSC02361,2550,7801,774,2316
CG32651,DRSC18941,2819,,1259,
CR34254,DRSC09562,2793,,1266,
cnir,DRSC00499,4748,10000,1524,4800
CG43693,DRSC09086,3890,,2087,
CG43693,DRSC10625,6519,,2348,
cyc,DRSC11337,18480,,5113,
Cftr,DRSC15872,3184,5730,1463,1746
sky,DRSC02383,14624,,4250,
sky,DRSC03214,10370,,3736,
sky,DRSC03215,2490,7571,1002,2720
Qsox3,DRSC16096,37093,,6321,
CG2063,DRSC06811,3520,7170,466,1048
CG30095,DRSC07175,5859,,2417,
lncRNA:CR32730,DRSC22957,8.92e5,9.31e5,3.58e5,96529
BaraC,DRSC03885,14579,,9430,
CG5104,DRSC11765,19074,,4513,
hydra,DRSC20497,17043,,9105,
Cyt-c-d,DRSC03309,1865,10749,906,4321
CG15023,DRSC08477,1990,9271,1404,3373
nerfin-1,DRSC08729,5957,,2856,
TrpRS,DRSC14097,13035,,3228,
Gapdh2,DRSC20246,17620,,8374,
CG8229 + CG33199,DRSC05134,15542,,7536,
Takl2,DRSC15650,16598,,14722,
eyg,DRSC11344,4605,,530,
CG3397,DRSC15487,6139,,2896,
alpha4GT2,DRSC13732,3469,,1504,
alpha4GT2,DRSC15905,19634,,15410,
Gad1,DRSC08661,2533,,1553,
CG12477,DRSC09886,4643,,2101,
Skp2,DRSC12329,6000,,2922,
Rlip,DRSC16828,13812,,3142,
CG15208,DRSC19654,1610,4608,613,1920
CG6683,DRSC10694,4389,,1707,
bmm,DRSC10502,5707,,2539,
Sac1,DRSC08622,12560,,2934,
CR30029,DRSC06724,8032,,2522,
Rpt3,DRSC20283,19745,,5462,

3 of these entries in another layout.
nanos [DRSC17018]
- firefly reporter light, replicate 1: 18588
- Renilla control light, replicate 1: 2650

CG3652 [DRSC00624]
- firefly reporter light, replicate 1: 3484
- firefly reporter light, replicate 2: 8784
- Renilla control light, replicate 1: 1140
- Renilla control light, replicate 2: 3634

Polr2L [DRSC14630]
- firefly reporter light, replicate 1: 20560
- Renilla control light, replicate 1: 10512
